Test results: patent US20230181543A1, “TREATMENT OF CARM1-OVEREXPRESSING AND/OR ARID1A MUTANT CANCERS WITH IRE-1/XBP-1 INHIBITORS” (The Wistar Institute of Anatomy and Biology, priority 2020, published 2023)
“Also recorded” adds a separate entry of the source. At least one structure is not confirmed: it was looked up by name or label, or the drawing left a doubt.

Tested on: OCCC cells
Assay: Colony formation assays of ARID1A wild-type and ARID1A-mutant OCCC cells with B-I09
Type: cell-based
Conditions: ARID1A wild-type vs ARID1A-mutant OCCC cells

## O=c1oc2c(C3OCCCO3)c(O)ccc2c2c1CNCC2 [B-I09]
  sensitivity to B-I09 (IC50, colony formation) by ARID1A status: ARID1A-mutant OCCC cells are more sensitive to ER stress response inhibition via B-I09 treatment; also recorded: ARID1A-mutant cells are selectively sensitive to B-I09 inhibition; also recorded: ARID1A mutated OCCC cells are sensitive to B-I09
